Source: patent publication US20260183405A1 (priority 2022, published 2026)
Some peptides are written in HELM: one residue between dots, names in brackets for other building blocks, links after the first $.

Assay: general procedure: solution-phase peptide synthesis; NHS active esters with DIEA
[1] = late stage modification step, TFA salt
[2] = late stage modification step, disodium

For “(4S)-4,11-Diethyl-3,14-dioxo-3,4,12,14-tetrahydro-1H-pyrano[3′,4′:6,7]indolizino[1,2-b]quinolin-4-yl N-[3-(2-{2-[2-(L-lysylamino)ethoxy]ethoxy}ethoxy)propanoyl]-L-alpha-aspartyl-L-prolyl-L-valinate⋅trifluoroacetic acid (1:1)”, the “crude purity (method not given)” value [1] was 100% purity.
In the case of Boc-Intermediate 8, the “final purity (method not given)” value (coupling step, TFA salt) is reported as 98% purity and the step yield (coupling step, TFA salt) is reported as 81% yield.
In the case of Boc-Intermediate 9, the conjugation yield (conjugation step, TFA salt) is reported as 52% yield and the “final purity (method not given)” value (conjugation step, TFA salt) is reported as 87% purity.
In the case of Boc-Intermediate 13, the “final purity (method not given)” value (coupling step, TFA salt) is reported as 93% purity and the step yield (coupling step, TFA salt) is reported as 79% yield.
In the case of Boc-Intermediate 14, the conjugation yield (conjugation step, TFA salt) is reported as 67% yield and the “final purity (method not given)” value (conjugation step, TFA salt) is reported as 100% purity.
In the case of Boc-Intermediate 16, the “final purity (method not given)” value (coupling step, TFA salt) is reported as 98% purity and the step yield (coupling step, TFA salt) is reported as 63% yield.
For Boc-Intermediate 17, the “final purity (method not given)” value (coupling step, TFA salt) was 100% purity and the step yield (coupling step, TFA salt) was 55% yield.
With Boc-Intermediate 18 the conjugation yield (conjugation step, TFA salt) was 73% yield and the “final purity (method not given)” value (conjugation step, TFA salt) was 100% purity.
In the case of “N^2-(3-{2-[2-(2-aminoethoxy)ethoxy]ethoxy}propanoyl)-L-asparaginyl-L-prolyl-N-[(2S)-4-[{(1R)-1-[1-benzyl-4-(2,5-difluorophenyl)-1H-pyrrol-2-yl]-2,2-dimethylpropyl}(hydroxyacetyl)amino]-1-(methylamino)-1-oxobutan-2-yl]-L-valinamide”, the “final LC-MS purity” value [1] is reported as 96% purity and the step yield [1] is reported as 97% yield.
With “N^2-[3-(2-{2-[2-(L-lysylamino)ethoxy]ethoxy}ethoxy)propanoyl]-L-asparaginyl-L-prolyl-N-{3-[{(1R)-1-[1-benzyl-4-(2,5-difluorophenyl)-1H-pyrrol-2-yl]-2,2-dimethylpropyl}(hydroxyacetyl)amino]propyl}-L-valinamide” the “crude LC-MS purity” value [1] was 92% purity and the step yield [1] was 81% yield.
In the case of “PEPTIDE1{[avb3R].[PEG3].D.P.V.[MMAE-O-2open]}$$$$V2.0”, the “purity (crude or final not stated)” value [2] is reported as 96% purity and the step yield [2] is reported as 96% yield.
With “trifluoroacetic acid. N,N-dimethyl-L-valyl-N-[(3R,4S,5S)-3-methoxy-1-{(2S)-2-[(1R,2R)-1-methoxy-2-methyl-3-{[(2S)-1-{[3-methyl-3-(L-valyloxy)butyl]amino}-1-oxo-3-phenylpropan-2-yl]amino}-3-oxopropyl]pyrrolidin-1-yl}-5-methyl-1-oxoheptan-4-yl]-N-methyl-L-valin” the “crude LC-MS purity” value [1] was 95% purity and the step yield [1] was 93% yield.
For “trifluoroacetic acid. N-[(benzyloxy)carbonyl]-N-methyl-L-valyl-N-[(3R,4S,5S)-3-methoxy-1-{(2S)-2-[(1R,2R)-1-methoxy-2-methyl-3-oxo-3-{[(1S,2R)-1-phenyl-1-(L-valyloxy)propan-2-yl]amino}propyl]pyrrolidin-1-yl}-5-methyl-1-oxoheptan-4-yl]”, the “crude LC-MS purity” value [1] was 100% purity.
In the case of “trisodium 1-[(2S)-15-{[N^2,N^6-bis(14-{4-[({(1R)-2-carboxylato-1-[3-({3-[(propylcarbamoyl)amino]benzene-1-sulfonyl}amino)phenyl]ethyl}carbamoyl)amino]anilino}-14-oxo-4,7,10-trioxa-13-azatetradecanan-1-oyl}-L-lysyl]amino)-2-(carboxylatomethyl)-4-oxo-7,10,13-trioxa-3-azapentadecanan-1-oyl]-L-prolyl-N-[(2S)-4-[{(1R)-1-[1-benzyl-4-(2,5-difluorophenyl)-1H-pyrrol-2-yl]-2,2-dimethylpropyl}(hydroxyacetyl)amino]-1-(methylamino)-1-oxobutan-2-yl]-L-valinamide”, the “purity (crude or final not stated)” value [1] is reported as 96% purity and the step yield [1] is reported as 100% yield.
